Source: US20250066691A1, “SOLVENT-BASED DETERGENT COMPOSITIONS AND METHODS FOR HYDROPHOBIC SOIL REMOVAL” (ECOLAB USA INC., priority 2023, published 2025)

Assay: Soiled coupon cleaning method, lipstick soil on stainless steel coupons (Example 1)
Settings: composition with the named solvent, approx. 4% concentration, 30 minutes, 140° F. (60° C.), agitation, observed every 5 minutes
With `CCCCC(CC)COCCO` (stereo not drawn) [2-2(2-Ethylhexyloxy)ethanol] the “Visual Result (visual rating of soil removal, 1=no soil removal, 5=complete soil removal, averaged over observations)” value was 1.71.
In the case of `CCCCC(CC)COC(=O)[C@H](C)O` (stereo partly drawn) [2-Ethylhexyl Lactate, 2-Ethylhexyl L-Lactate], the “Visual Result (visual rating of soil removal, 1=no soil removal, 5=complete soil removal, averaged over observations)” value is reported as 3.29.
With `OCc1ccccc1` [Benzyl Alcohol] the “Visual Result (visual rating of soil removal, 1=no soil removal, 5=complete soil removal, averaged over observations)” value was 1.
In the case of `CCCCCCOCCOCCO` [Diethylene glycol monohexyl ether], the “Visual Result (visual rating of soil removal, 1=no soil removal, 5=complete soil removal, averaged over observations)” value is reported as 1.
For `CC(C)COC(=O)CCCCC(=O)OCC(C)C` [Diisobutyl Adipate], the “Visual Result (visual rating of soil removal, 1=no soil removal, 5=complete soil removal, averaged over observations)” value was 1.
In the case of `CCCCCCCCCCCCO` [Dodecanol (Lauryl Alcohol), Dodecanol], the “Visual Result (visual rating of soil removal, 1=no soil removal, 5=complete soil removal, averaged over observations)” value is reported as 1.
In the case of `CCOC(=O)C(C)O` (stereo not drawn) [Ethyl Lactate], the “Visual Result (visual rating of soil removal, 1=no soil removal, 5=complete soil removal, averaged over observations)” value is reported as 1.
In the case of `CC(=O)OCC(COC(C)=O)OC(C)=O` [Glycerol Triacetate], the “Visual Result (visual rating of soil removal, 1=no soil removal, 5=complete soil removal, averaged over observations)” value is reported as 1.
With `C=C(C)[C@H]1CC=C(C)CC1` [Limonene] the “Visual Result (visual rating of soil removal, 1=no soil removal, 5=complete soil removal, averaged over observations)” value was 1.
For `CCCCCCCC(=O)O` [Octanoic acid], the “Visual Result (visual rating of soil removal, 1=no soil removal, 5=complete soil removal, averaged over observations)” value was 1.29.
For `CC(O)COc1ccccc1` (stereo not drawn) [Propylene glycol phenyl ether], the “Visual Result (visual rating of soil removal, 1=no soil removal, 5=complete soil removal, averaged over observations)” value was 1.
With `Cc1ccccc1` [Toluene] the “Visual Result (visual rating of soil removal, 1=no soil removal, 5=complete soil removal, averaged over observations)” value was 1.
For `CCOC(=O)CC(O)(CC(=O)OCC)C(=O)OCC` [Triethyl Citrate], the “Visual Result (visual rating of soil removal, 1=no soil removal, 5=complete soil removal, averaged over observations)” value was 1.
For `CCCCOC(C)COC(C)COC(C)CO` (stereo not drawn) [Tripropylene glycol butyl ether], the “Visual Result (visual rating of soil removal, 1=no soil removal, 5=complete soil removal, averaged over observations)” value was 3.

Same assay, conditions: composition with the named solvent, approx. 4% concentration, 30 minutes, 140° F. (60° C.), agitation, observed every 5 minutes; listed as toluene
For `Cc1ccccc1` [Toluene], the “Visual Result (visual rating of soil removal, 1=no soil removal, 5=complete soil removal, averaged over observations)” value was “no efficacy”.

Where a name gives a salt, the structure may show the parent alone.
